Values from PubChem BioAssay AID1259289 (Sanger Institute, 2017)
In all, the deposit lists 794 reagents; this is a random part of them. 16 of them (2%) count as active. 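Active marks cell loss from silencing alone; drug synergy shows only in the synergy scores, not the calls.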 Viability is capped at 1. Not stated in the record: the amount of reagent, the time to read-out.

- Purpose: 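Find kinases whose loss adds to targeted drugs in killing bowel cancer cells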 (primary screen)
- Cells: human LS513 colorectal cancer cells
- Reagents: siRNA pool against human genes
- Conditions: anchor drug BYL719 at 1 µM, cetuximab at 5 µg/ml or trametinib at 10 nM, or DMSO vehicle alone; exposure time not given
- Measurement: 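Cell survival as a fraction of the non-targeting pool, replicate means; robust z-score for silencing alone under DMSO; synergy score for each of BYL719, cetuximab and trametinib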
- Scale: robust z-score, siRNA alone (DMSO): higher = more viable cells; strongly negative means essential; viability with DMSO vs control: higher = more viable cells; synergy score with BYL719: higher = stronger combined killing with BYL719; synergy score with cetuximab: higher = stronger combined killing with cetuximab; synergy score with trametinib: higher = stronger combined killing with trametinib
- Hit rule: 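a gene counts as active if its DMSO-only robust z-score falls under -3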
- Calls: active = essential (knock-down alone); inactive = not essential

target | robust z-score, siRNA alone (DMSO) | viability with DMSO vs control (fraction of control) | synergy score with BYL719 | synergy score with cetuximab | synergy score with trametinib | outcome
BTK (Bruton tyrosine kinase) | 0.561 | 1 | -0.106 | 0.0128 | -0.0374 | inactive
AKT3 (AKT serine/threonine kinase 3) | -0.845 | 0.8 | 0.0465 | 0.0876 | 0.0297 | inactive
ALPK3 (alpha kinase 3) | -0.465 | 0.854 | 0.0283 | 0.197 | -0.00233 | inactive
BRDT (bromodomain testis associated) | 0.561 | 1 | -0.134 | -0.0968 | 0.0415 | inactive
PRKD3 (protein kinase D3) | 0.561 | 1 | -0.0272 | 0.18 | 0.073 | inactive
PFKFB2 (6-phosphofructo-2-kinase/fructose-2,6-biphosphatase 2) | 0.561 | 1 | 0.073 | -0.0845 | 0.0751 | inactive
PHKA2 (phosphorylase kinase regulatory subunit alpha 2) | 0.561 | 1 | -0.109 | -0.0293 | 0.0157 | inactive
DGKA (diacylglycerol kinase alpha) | -3.11 | 0.479 | -0.0319 | -0.15 | 0.0477 | active
EPHB6 (EPH receptor B6) | 0.561 | 1 | 0.0259 | 0.116 | 0.0127 | inactive
TRPM7 | 0.169 | 0.944 | 0.0734 | 0.163 | -0.0599 | inactive
DYRK2 (dual specificity tyrosine phosphorylation regulated kinase 2) | 0.561 | 1 | -0.131 | -0.0968 | 0.0845 | inactive
HIPK4 (homeodomain interacting protein kinase 4) | 0.561 | 1 | -0.134 | -0.0968 | -0.00415 | inactive
ERBB3 (erb-b2 receptor tyrosine kinase 3) | 0.561 | 1 | -0.134 | -0.0968 | 0.0287 | inactive
NRBP1 (nuclear receptor binding protein 1) | -1.04 | 0.773 | -0.0192 | 0.0182 | -0.0755 | inactive
MAP2K7 (mitogen-activated protein kinase kinase 7) | 0.561 | 1 | -0.0688 | 0.04 | 0.0428 | inactive
SGK1 (serum/glucocorticoid regulated kinase 1) | 0.561 | 1 | -0.057 | -0.0968 | 0.0256 | inactive
KCNH2 (potassium voltage-gated channel subfamily H member 2) | -0.359 | 0.869 | 0.111 | 0.229 | 0.0551 | inactive
LTK (leukocyte receptor tyrosine kinase) | 0.561 | 1 | -0.134 | -0.0968 | 0.011 | inactive
PIP5KL1 (phosphatidylinositol-4-phosphate 5-kinase like 1) | 0.561 | 1 | -0.0197 | 0.0209 | -0.0543 | inactive
CHD9 (chromodomain helicase DNA binding protein 9) | 0.561 | 1 | -0.0449 | -0.0968 | 0.0558 | inactive
TPK1 (thiamin pyrophosphokinase 1) | -0.268 | 0.882 | 0.0714 | 0.0526 | 0.0433 | inactive
IDH2 (isocitrate dehydrogenase (NADP(+)) 2) | 0.561 | 1 | -0.00947 | -0.0968 | -0.0629 | inactive
TEK (TEK receptor tyrosine kinase) | 0.561 | 1 | -0.134 | -0.0968 | 0.0195 | inactive
PIK3C2B | 0.561 | 1 | -0.0466 | -0.0336 | -0.0123 | inactive
CMPK1 (cytidine/uridine monophosphate kinase 1) | 0.561 | 1 | 0.0556 | 0.00087 | -0.0492 | inactive
GUCY2D (guanylate cyclase 2D, retinal) | -4.39 | 0.297 | -0.0734 | 0.115 | 0.0387 | active
SMAD4 (SMAD family member 4) | -0.918 | 0.79 | 0.105 | 0.132 | -0.171 | inactive
PIK3R4 (phosphoinositide-3-kinase regulatory subunit 4) | 0.561 | 1 | 0.089 | -0.00492 | 0.0169 | inactive
RET (ret proto-oncogene) | 0.561 | 1 | -0.0312 | -0.074 | 0.0507 | inactive
CALM2 (calmodulin 2) | -0.912 | 0.791 | -0.0593 | -0.22 | -0.026 | inactive
ROS1 (ROS proto-oncogene 1, receptor tyrosine kinase) | 0.561 | 1 | 0.203 | 0.0404 | 0.0107 | inactive
PINK1 (PTEN induced kinase 1) | 0.186 | 0.947 | 0.292 | 0.0935 | 0.0616 | inactive
PTPRU (protein tyrosine phosphatase receptor type U) | -0.563 | 0.84 | 0.0703 | -0.0513 | -0.0985 | inactive
JAK2 (Janus kinase 2) | 0.561 | 1 | -0.134 | -0.0968 | -0.0373 | inactive
CPNE3 (copine 3) | 0.26 | 0.957 | -0.0955 | -0.00709 | 0.0163 | inactive
ACVRL1 (activin A receptor like type 1) | 0.561 | 1 | -0.134 | 0.01 | -0.124 | inactive
ALK (ALK receptor tyrosine kinase) | -1.4 | 0.722 | 0.0867 | 0.163 | 0.024 | inactive
TP53BP1 (tumor protein p53 binding protein 1) | 0.561 | 1 | -0.134 | -0.0968 | 0.0158 | inactive
PIK3R1 (phosphoinositide-3-kinase regulatory subunit 1) | 0.561 | 1 | -0.134 | -0.0968 | 0.024 | inactive
PDK4 (pyruvate dehydrogenase kinase 4) | 0.561 | 1 | 0.113 | -0.00904 | 0.0591 | inactive
TESK2 (testis associated actin remodelling kinase 2) | 0.561 | 1 | -0.134 | -0.0577 | -0.0718 | inactive
STK32B (serine/threonine kinase 32B) | 0.561 | 1 | 0.0773 | 0.147 | 0.0336 | inactive
DGKH (diacylglycerol kinase eta) | 0.223 | 0.952 | -0.0104 | 0.0455 | 0.0379 | inactive
CDC7 (cell division cycle 7) | -1.88 | 0.653 | 0.0847 | 0.0525 | -0.0173 | inactive
FN3K (fructosamine 3 kinase) | 0.561 | 1 | -0.00606 | -0.0869 | 0.0955 | inactive
UCKL1 (uridine-cytidine kinase 1 like 1) | 0.561 | 1 | -0.134 | -0.0968 | 0.00187 | inactive
PRKCA (protein kinase C alpha) | 0.561 | 1 | -0.0788 | -0.0968 | 0.0701 | inactive
TCF12 (transcription factor 12) | 0.561 | 1 | -0.0491 | 0.0377 | -0.0333 | inactive
TSSK6 (testis specific serine kinase 6) | 0.28 | 0.96 | 0.108 | 0.17 | 0.0618 | inactive
PIP5K1A (phosphatidylinositol-4-phosphate 5-kinase type 1 alpha) | -0.87 | 0.797 | -0.0896 | -0.0914 | 0.0343 | inactive

Part of the list above, reformatted.
{"target": "EPHB6 (EPH receptor B6)", "robust z-score, siRNA alone (DMSO)": 0.561, "viability with DMSO vs control (fraction of control)": 1, "synergy score with BYL719": 0.0259, "synergy score with cetuximab": 0.116, "synergy score with trametinib": 0.0127, "outcome": "inactive"}
{"target": "TRPM7", "robust z-score, siRNA alone (DMSO)": 0.169, "viability with DMSO vs control (fraction of control)": 0.944, "synergy score with BYL719": 0.0734, "synergy score with cetuximab": 0.163, "synergy score with trametinib": -0.0599, "outcome": "inactive"}
{"target": "DYRK2 (dual specificity tyrosine phosphorylation regulated kinase 2)", "robust z-score, siRNA alone (DMSO)": 0.561, "viability with DMSO vs control (fraction of control)": 1, "synergy score with BYL719": -0.131, "synergy score with cetuximab": -0.0968, "synergy score with trametinib": 0.0845, "outcome": "inactive"}
{"target": "HIPK4 (homeodomain interacting protein kinase 4)", "robust z-score, siRNA alone (DMSO)": 0.561, "viability with DMSO vs control (fraction of control)": 1, "synergy score with BYL719": -0.134, "synergy score with cetuximab": -0.0968, "synergy score with trametinib": -0.00415, "outcome": "inactive"}
{"target": "ERBB3 (erb-b2 receptor tyrosine kinase 3)", "robust z-score, siRNA alone (DMSO)": 0.561, "viability with DMSO vs control (fraction of control)": 1, "synergy score with BYL719": -0.134, "synergy score with cetuximab": -0.0968, "synergy score with trametinib": 0.0287, "outcome": "inactive"}
{"target": "NRBP1 (nuclear receptor binding protein 1)", "robust z-score, siRNA alone (DMSO)": -1.04, "viability with DMSO vs control (fraction of control)": 0.773, "synergy score with BYL719": -0.0192, "synergy score with cetuximab": 0.0182, "synergy score with trametinib": -0.0755, "outcome": "inactive"}
{"target": "MAP2K7 (mitogen-activated protein kinase kinase 7)", "robust z-score, siRNA alone (DMSO)": 0.561, "viability with DMSO vs control (fraction of control)": 1, "synergy score with BYL719": -0.0688, "synergy score with cetuximab": 0.04, "synergy score with trametinib": 0.0428, "outcome": "inactive"}
{"target": "SGK1 (serum/glucocorticoid regulated kinase 1)", "robust z-score, siRNA alone (DMSO)": 0.561, "viability with DMSO vs control (fraction of control)": 1, "synergy score with BYL719": -0.057, "synergy score with cetuximab": -0.0968, "synergy score with trametinib": 0.0256, "outcome": "inactive"}
